# Source: PubChem BioAssay AID504834 (National Center for Advancing Translational Sciences (NCATS), 2011)
# Hit rate of the full screen: of about 320,000 compounds, about 22,000 (6.9%) were called active. Inconclusive means that the source gave no clear call. Such entries were picked first, then a sample of the others. Calls come from the whole dose curve; as a rule, active = well fitted inhibition curve with a large enough effect; inconclusive = small, poorly fitted or top-dose-only effect, or another doubt; inactive = no such curve, though single readings can be large or run the other way. Where the call is inconclusive, the potency comes from a doubtful curve fit.
# Assay: Primary qHTS for delayed death inhibitors of the malarial parasite plastid, 96 hour incubation
# Conditions: P. falciparum luciferase reporter growth; series mostly up to 28.7 µM; activity change, negative = inhibition: at the top concentration
# Procedure, shortened: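 Erythrocytes infected with luciferase-expressing P. falciparum were dispensed at 2% hematocrit and 0.05% parasitemia (final), then incubated with compounds 96 hours at 37 C in 5% CO2. Luminescence after detection reagent addition reported growth.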
# % is set by controls: 0 for no effect and ±100 for the full control effect; potency is the fitted concentration of half-maximal effect.
SMILES,Potency,"activity change, negative = inhibition"
Cc1cccc(NC(=O)NCC(c2ccc(F)cc2)N2CCN(C)CC2)c1 (centres undefined),"inconclusive: 11.7 µM [inhibitor, partial curve]",
COc1ccc(OC)c(CN2CCN(C(=O)c3cccc(S(=O)(=O)Nc4ccccc4OC)c3)CC2)c1,"inconclusive: 2.33 µM [inhibitor, full curve]",
COc1ccc(/C=C(/C#N)S(=O)(=O)c2ccc(C)cc2)cc1,,inactive: -14.5%
CCOC(=O)c1c(NC(=O)CSc2nccn2C)sc(C(=O)NC)c1C,"inconclusive: 8.28 µM [inhibitor, single point]",
COc1cccc(/C=N/Nc2cc(C)nc(-c3ccccc3O)n2)c1O,active: 0.37 µM,
O=C(Nc1ccccc1C(=O)O)/C(=C/c1ccc([N+](=O)[O-])cc1)NC(=O)c1ccc(Br)o1,,inactive: 78.6%
COc1ccc(C(=O)Nc2ccnn2C2CCN(C(=O)c3cccnc3)CC2)cc1,"inconclusive: 3.7 µM [inhibitor, single point]",
CSCCC(NS(=O)(=O)c1ccccc1F)C(=O)Nc1ccncc1 (centres undefined),"inconclusive: 16.5 µM [inhibitor, single point]",
COc1ccc(S(=O)(=O)N(CC(=O)NCc2ccco2)c2ccc(C)cc2)cc1OC,,inactive: -1.88%
CCc1cc(CNC(=O)CC2C(=O)NCCN2Cc2c(F)cccc2Cl)on1 (centres undefined),"inconclusive: 10.4 µM [inhibitor, single point]",
CC(C)(C)c1cc(C(=O)Nc2cccnc2)cc(C(=O)Nc2cccnc2)c1,active: 0.828 µM,
Cc1cc(=O)oc(C)c1C(=O)NCCCN1CCN(c2ccccc2F)CC1,"inconclusive: 0.037 µM [inhibitor, full curve, poor fit]",
CC(C)c1ccc(NC2CCCN(C(=O)CCc3cnn(C)c3)C2)cc1 (centres undefined),active: 7.38 µM,
O=C(Nc1ccccc1N1CCCCC1)c1ccc(OC(F)F)cc1,"inconclusive: 18.5 µM [inhibitor, single point]",
CCn1c(=O)c2cc(C(=O)Nc3ccccc3OC)sc2c2ccccc21,"inconclusive: 6.57 µM [inhibitor, partial curve, poor fit]",
N#Cc1nc(-c2ccc(OCc3ccc(Cl)cc3)cc2)oc1N1CCOCC1,active: 10.4 µM,
COC(=O)c1ccc(/C=C/C(=O)O)cc1,,inactive: 83.6%
CC(C)C(NC(=O)C1CCCCC1)C(=O)Nc1ccc2c(c1)OCCO2 (centres undefined),"inconclusive: 16.5 µM [inhibitor, partial curve, poor fit]",
O=C(NCCCN1CCOCC1)C(=O)NCC1CCCO1 (centres undefined),"inconclusive: 16.5 µM [inhibitor, single point]",
Cc1csc(NC(=O)C2CCN(S(=O)(=O)c3cccs3)CC2)n1,,inactive: 55.2%
CCN(c1cccc(C)c1)S(=O)(=O)c1ccc2c3c(cccc13)C(=O)N2,"inconclusive: 13.1 µM [inhibitor, single point]",
COCCn1nnnc1C(C(C)C)N(Cc1cccnc1)Cc1ccccc1Cl (centres undefined),,inactive: -0.362%
Cc1cc(C)n(-c2ccc(C(=O)Nc3cccc([N+](=O)[O-])c3)cc2)n1,,inactive: -26.4%

SMILES,Potency,"activity change, negative = inhibition"
Cc1ccc(Cn2c(=O)c3cccnc3n(CC(=O)Nc3cccc(C(F)(F)F)c3)c2=O)cc1,"inconclusive: 18.5 µM [inhibitor, single point]",
Cc1cc(C(=O)CCC(=O)NNC(=O)c2ccccc2O)c(C)s1,"inconclusive: 11.7 µM [inhibitor, single point]",
O=C(Nc1ccccc1N1CCCC1)c1cc2ccccc2o1,,inactive: 1.01%
COc1ccc(N(C(=O)CNC(=O)c2cccs2)C(C(=O)NC2CCCC2)c2cccnc2)cc1 (centres undefined),"inconclusive: 13.1 µM [inhibitor, partial curve]",
Cc1nc2ccccc2c(=O)n1NC(=O)c1c(F)cccc1F,,inactive: 32.2%
S=C1COC(c2ccccc2)N1c1ccccc1 (centres undefined),"inconclusive: 18.5 µM [inhibitor, single point]",
Cc1cccc(C(=O)Nc2nnc(SCC(=O)NC3CC3)s2)c1,"inconclusive: 18.5 µM [inhibitor, partial curve, poor fit]",
CCCN1CCN(C(=O)c2ccc(CS(=O)c3ccc(Cl)cc3)o2)CC1 (centres undefined),"inconclusive: 18.5 µM [inhibitor, single point]",
Cc1oc(C(C)(C)C)cc1C(=O)NC(Cc1ccccc1)C(=O)O (centres undefined),"inconclusive: 16.5 µM [inhibitor, single point]",
COc1cc2c(OC(C)=O)c3c(c(-c4ccc5c(c4)OCO5)c2cc1OC)C(=O)OC3,"inconclusive: 9.28 µM [inhibitor, partial curve]",
O=C(C1CCCCC1)N1CC(=O)N2CCc3ccccc3[C@@H]2C1,"inconclusive: 4.78 µM [inhibitor, partial curve]",
C=CCn1c(N)c(C(=O)OCCC)c2nc3ccccc3nc21,"inconclusive: 18.5 µM [inhibitor, single point]",
c1cc2c(cc1C1CCCN1)OCCCO2 (centres undefined),"inconclusive: 0.0093 µM [inhibitor, full curve, poor fit]",
CCOc1cc(/C=C/C(=O)c2ccc(O)cc2)ccc1OCC(=O)N(C)C,"inconclusive: 11.7 µM [inhibitor, partial curve, poor fit]",
O=C(COc1ccccc1)Nc1ccccc1NS(=O)(=O)c1cccs1,,inactive: -2.42%
CCC(C)(C)NC(=O)C1CCC(CNS(=O)(=O)c2cccc3nsnc23)CC1 (centres undefined),"inconclusive: 10.4 µM [inhibitor, single point]",
COc1ccc(NC(=O)CSc2nnc(CCC(=O)O)c(=O)n2N)cc1,,inactive: -24%
Cc1cc(C)nc(NC2=NCC(=O)N2c2ccccc2)n1,"inconclusive: 14.7 µM [inhibitor, single point]",
O=C(Nc1cccc(O)c1)C1CCCN1C(=O)OCc1ccccc1 (centres undefined),"inconclusive: 0.0657 µM [inhibitor, full curve]",
O=C(CSc1nc(=O)n(CCCN2CCOCC2)c2c1CCCC2)Nc1ccc(F)c(F)c1,"inconclusive: 18.5 µM [inhibitor, single point]",
Nc1cc(N2CCCCCC2)c2nonc2c1[N+](=O)[O-],,inactive: -10.3%
COc1ccc(CN(C)C(=O)c2ccc(NS(=O)(=O)c3ccc(C)c([N+](=O)[O-])c3)cc2)c(OC)c1OC,"inconclusive: 10.4 µM [inhibitor, partial curve]",

SMILES,Potency,"activity change, negative = inhibition"
COc1ccc(/C=C/c2ccccc2)cc1[C@H]1[C@@H]2C=CCC[C@@]2(C)C(=O)N1Cc1ccccc1,"inconclusive: 18.5 µM [inhibitor, single point]",
Cn1c(CCN2CCOCC2)nc2cc(NC(=O)COc3ccc([N+](=O)[O-])cc3)ccc21,"inconclusive: 18.5 µM [inhibitor, single point]",
Cc1ccc(C2(O)CC(C)N(C)CC2C)cc1 (centres undefined),"inconclusive: 11.7 µM [inhibitor, single point]",
CCN(Cc1ccccc1)C(=O)CCS(=O)(=O)c1ccc2c(c1)n(C)c(=O)c(=O)n2C,active: 3.7 µM,
CN(C)c1ccc(CN(C(=O)/C=C/c2ccco2)C2CCS(=O)(=O)C2)cc1 (centres undefined),"inconclusive: 14.7 µM [inhibitor, single point]",
COC(=O)CC1C(=O)NCCN1C(=O)CSc1nc2cc(Cl)ccc2o1 (centres undefined),,inactive: 11.1%
O=S(=O)(c1ccc(NC(=S)N2CCN(c3ccc(O)cc3)CC2)cc1)N1CCOCC1,,inactive: -8.89%
Cc1ccc(-n2ncc3c(NCCCOC(C)C)ncnc32)c(C)c1,"inconclusive: 10.4 µM [inhibitor, single point]",
CCN(CC)CC(C)CNC(=O)CN1C(=O)CSc2ccc(S(=O)(=O)N3CCOCC3)cc21 (centres undefined),active: 13.1 µM,
O=S(=O)(NCCCCCNS(=O)(=O)c1ccc(F)cc1)c1ccc(F)cc1,"inconclusive: 11.7 µM [inhibitor, single point]",
NC(=O)CSc1nnc(COc2cccc3ccccc23)o1,active: 11.7 µM,
COc1ccccc1CNS(=O)(=O)c1ccc2c(c1)NC(=O)C(C)S2 (centres undefined),"inconclusive: 9.28 µM [inhibitor, partial curve]",
O=C(COc1cccc(C(F)(F)F)c1)Nc1ccccc1N1CCCCC1,"inconclusive: 18.5 µM [inhibitor, single point]",
O=C(Nc1ccn(Cc2cccc3ccccc23)n1)c1cccnc1,,inactive: 30.9%
CCOc1ccc(NC2OCC(O)C(O)C2O)c([N+](=O)[O-])c1 (centres undefined),,inactive: -20%
CCN(CC)CCOc1ccc2c(c1)C(=O)c1cc(OCCN(CC)CC)ccc1-2,active: 6.01 µM,
O=C(Nc1cccc2c1CCCC2)c1ccccc1Br,"inconclusive: 14.7 µM [inhibitor, single point]",
CC(C)N(C(=O)c1ccc(C(=O)Nc2ccc([N+](=O)[O-])cc2)cc1)C(C)C,"inconclusive: 11.7 µM [inhibitor, single point]",
O=C(NCc1ccc(F)cc1)c1cc(-c2cccs2)on1,"inconclusive: 18.5 µM [inhibitor, single point]",
O=C(CCN1CCN(C(c2ccccc2)c2ccccc2)CC1)N/N=C/c1ccc(O)cc1O,active: 5.22 µM,
Cc1cccc(N2C(=O)N3[C@H](c4ccc(Cl)cc4)[C@@H]4C(=O)N(C5CCCCC5)C(=O)[C@@H]4[C@]3(Cc3ccc(Cl)cc3)C2=O)c1,"inconclusive: 10.4 µM [inhibitor, partial curve]",
COc1c(C)cc(C(=O)C2CCCN(Cc3cccc4nccnc34)C2)cc1C (centres undefined),"inconclusive: 18.5 µM [inhibitor, single point]",
O=C(c1cc(Br)ccc1Cl)N1CCN(c2ccc(N3CCOCC3)nn2)CC1,"inconclusive: 14.7 µM [inhibitor, single point]",

# Sorted by length of the SMILES (largest number first): part of the list above.
SMILES,Potency,"activity change, negative = inhibition"
Cc1cccc(N2C(=O)N3[C@H](c4ccc(Cl)cc4)[C@@H]4C(=O)N(C5CCCCC5)C(=O)[C@@H]4[C@]3(Cc3ccc(Cl)cc3)C2=O)c1,"inconclusive: 10.4 µM [inhibitor, partial curve]",
O=C(COc1cccc(C(F)(F)F)c1)Nc1ccccc1N1CCCCC1,"inconclusive: 18.5 µM [inhibitor, single point]",
O=C(Nc1ccn(Cc2cccc3ccccc23)n1)c1cccnc1,,inactive: 30.9%
Cc1ccc(C2(O)CC(C)N(C)CC2C)cc1 (centres undefined),"inconclusive: 11.7 µM [inhibitor, single point]",
